These are yes or no findings as the source states them, for the method shown.
Biological target: T1, Cic1 (Y2H bait, pAS2-1) (S. cerevisiae) (UniProt P38779)
T1 sequence: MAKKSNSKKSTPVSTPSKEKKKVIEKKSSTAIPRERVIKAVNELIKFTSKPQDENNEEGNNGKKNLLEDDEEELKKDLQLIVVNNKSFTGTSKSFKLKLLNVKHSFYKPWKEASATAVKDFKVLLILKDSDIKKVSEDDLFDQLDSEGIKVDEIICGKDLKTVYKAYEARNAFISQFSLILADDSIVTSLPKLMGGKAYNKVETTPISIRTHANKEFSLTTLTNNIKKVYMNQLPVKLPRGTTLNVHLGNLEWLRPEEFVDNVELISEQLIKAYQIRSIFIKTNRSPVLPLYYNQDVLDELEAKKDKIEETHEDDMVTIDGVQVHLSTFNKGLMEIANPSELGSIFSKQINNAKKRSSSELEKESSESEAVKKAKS
Assay: two-hybrid; array-based Y2H matrix; preys in pACT2 (PJ69-4a) mated against 23 baits in pAS2-1 (PJ69-4α); growth on SD-Leu-Trp-His + 6 mM 3-AT greater than the negative control after 2 weeks

B1: Nop4 RRM 1–2 (Y2H prey, pACT2) (domain or fragment, UniProt P37838 1-250)
chain: MEETIENVEVPSSNVSKQNDDGLDMKTLFVRSIPQDVTDEQLADFFSNFAPIKHAVVVKDTNKRSRGFGFVSFAVEDDTKEALAKARKTKFNGHILRVDIAKRRDRSKKTSEVVEKSTPESSEKITGQNNEDEDDADGEDSMLKGKPKLIIRNMPWSCRDPVKLKKIFGRYGTVVEATIPRKRDGKLCGFAFVTMKKISNCRIALENTKDLKIDGRKVAVDFAVQKNRWEDYKKAQPEMNDKDDNESGNE
With B1 the binding was “no binding”.

— article PMC4859800
